Reference: article doi:10.1101/2025.03.19.644084
Results are given in words; binding and its absence hold for the method and conditions named. Binding seen in cells or lysates may run through a third protein. Some entries that bind do so weakly or less than the wild type. Where a sequence is shown, tags or fusion partners need not be part of it.

Protein sequences, listed by entry. Tags and fused reporters are not part of them. Lines headed by an entry give the natural chain unless they say otherwise; changes in a name come on top.
UniProt P62258, whole entry: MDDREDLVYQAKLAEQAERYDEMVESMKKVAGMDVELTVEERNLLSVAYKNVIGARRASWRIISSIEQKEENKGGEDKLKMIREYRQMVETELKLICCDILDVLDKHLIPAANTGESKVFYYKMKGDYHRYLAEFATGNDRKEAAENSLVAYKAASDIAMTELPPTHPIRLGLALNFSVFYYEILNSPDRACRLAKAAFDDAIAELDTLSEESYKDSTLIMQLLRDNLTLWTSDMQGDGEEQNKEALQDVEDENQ

Legend:
Test in all cases: co-IP
HA-14-3-3ε^WT = HA-14-3-3ε^WT (UniProt P62258)
[1] = target: HA-14-3-3ε^AAA (E251-253A) (UniProt P62258)
HA-14-3-3ε^K50/215R = HA-14-3-3ε^K50/215R (UniProt P62258)

Measured: binding

B1: Flag-RIG-I (protein, UniProt O95786 1-925)
chain: MTTEQRRSLQAFQDYIRKTLDPTYILSYMAPWFREEEVQYIQAEKNNKGPMEAATLFLKFLLELQEEGWFRGFLDALDHAGYSGLYEAIESWDFKKIEKLEEYRLLLKRLQPEFKTRIIPTDIISDLSECLINQECEEILQICSTKGMMAGAEKLVECLLRSDKENWPKTLKLALEKERNKFSELWIVEKGIKDVETEDLEDKMETSDIQIFYQEDPECQNLSENSCPPSEVSDTNLYSPFKPRNYQLELALPAMKGKNTIICAPTGCGKTFVSLLICEHHLKKFPQGQKGKVVFFANQIPVYEQQKSVFSKYFERHGYRVTGISGATAENVPVEQIVENNDIIILTPQILVNNLKKGTIPSLSIFTLMIFDECHNTSKQHPYNMIMFNYLDQKLGGSSGPLPQVIGLTASVGVGDAKNTDEALDYICKLCASLDASVIATVKHNLEELEQVVYKPQKFFRKVESRISDKFKYIIAQLMRDTESLAKRICKDLENLSQIQNREFGTQKYEQWIVTVQKACMVFQMPDKDEESRICKALFLYTSHLRKYNDALIISEHARMKDALDYLKDFFSNVRAAGFDEIEQDLTQRFEEKLQELESVSRDPSNENPKLEDLCFILQEEYHLNPETITILFVKTRALVDALKNWIEGNPKLSFLKPGILTGRGKTNQNTGMTLPAQKCILDAFKASGDHNILIATSVADEGIDIAQCNLVILYEYVGNVIKMIQTRGRGRARGSKCFLLTSNAGVIEKEQINMYKEKMMNDSILRLQTWDEAVFREKILHIQTHEKFIRDSQEKPKPVPDKENKKLLCRKCKALACYTADVRVIEECHYTVLGDAFKECFVSRPHPKPKQFSSFEKRAKIFCARQNCSHDWGIHVKYKTFEIPVIKIESFVVEDIATGVQTLYSKWKDFHFEKIPFDPAEMSK
binds: HA-14-3-3ε^WT | [1] | HA-14-3-3ε^K50/215R
